# Results are given in words; binding and its absence hold for the method and conditions named. Binding seen in cells or lysates may run through a third protein. Some results given as binding are weak or reduced against the parent protein; the word gives no strength.
# The chains behind the UniProt entries cited, without tags or fusion partners.
# UniProt P10415: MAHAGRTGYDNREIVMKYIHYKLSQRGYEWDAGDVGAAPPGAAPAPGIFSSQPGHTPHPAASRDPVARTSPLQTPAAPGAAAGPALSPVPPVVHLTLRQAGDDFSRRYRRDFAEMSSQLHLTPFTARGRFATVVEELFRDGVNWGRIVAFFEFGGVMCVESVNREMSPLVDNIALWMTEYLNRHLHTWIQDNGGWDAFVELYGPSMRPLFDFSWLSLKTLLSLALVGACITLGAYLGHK
# Tests used:
# HA-BECN1 Y333E (human) = HA-BECN1 Y333E (human) (UniProt Q14457); experiment: co-IP; HEK293T cells expressing HA-BECN1 WT, Y333F or Y333E; endogenous partners detected by western blot; NP40 cell lysis buffer
# HA-BECN1 WT (human) = HA-BECN1 WT (human) (UniProt Q14457); experiment: as above
# [1] = molecular target: BECN1 (endogenous, HEK293T cells) (human (endogenous in HEK293T)) (UniProt Q14457); experiment: co-IP; IP of endogenous BECN1 in HEK293T cells, in the absence or presence of IL-6 (20 ng/ml) for 12 h or of CHZ868 (0.2 μM) for 12 h; NP40 cell lysis buffer, western blot
# [2] = molecular target: BECN1 (endogenous, HEK293T cells) (human (endogenous in HEK293T)) (UniProt Q14457); experiment: condition: only cells treated with IL-6 (20 ng/ml) for 12 h; co-IP; IP of endogenous BECN1 in HEK293T cells treated with IL-6 (20 ng/ml) for 12 h; NP40 cell lysis buffer, western blot
substance,measurement,setting,value
BCL-2 (from UniProt P10415 1-239),binding,HA-BECN1 Y333E (human),binds
same,binding,HA-BECN1 WT (human),binds
same,binding,[1],binds
same,binding,[2],no binding
